{"source": "paper PMC10128955", "key": {"[1]": {"molecular_target": "T1, truncated LAX1 fragment (1-159 aa), pGBK-LAX1(1-159) (Oryza sativa Japonica variety Zhonghua 11 (ZH11)) (UniProt Q7XAQ6)", "T1 sequence": "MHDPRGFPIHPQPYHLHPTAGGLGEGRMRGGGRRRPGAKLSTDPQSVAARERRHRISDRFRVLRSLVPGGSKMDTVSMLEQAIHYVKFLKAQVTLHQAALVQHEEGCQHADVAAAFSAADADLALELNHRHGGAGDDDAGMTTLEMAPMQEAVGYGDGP", "test": "two-hybrid; Matchmaker Gold system, AH109; LAX1 fragments in pGBK-T7 as bait, bHLH proteins in pGAD-T7 as prey; growth of dilutions on selective medium"}, "[2]": {"molecular_target": "T2, truncated LAX1 (31-99 aa) containing the bHLH domain (41-89 aa), pGBK-LAX1(31-99) (Oryza sativa Japonica variety Zhonghua 11 (ZH11)) (UniProt Q7XAQ6)", "T2 sequence": "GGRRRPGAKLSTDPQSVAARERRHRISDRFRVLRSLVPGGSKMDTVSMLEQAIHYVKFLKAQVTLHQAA", "test": "two-hybrid; Matchmaker Gold system, AH109; LAX1 fragments in pGBK-T7 as bait, bHLH proteins in pGAD-T7 as prey; growth of dilutions on selective medium"}, "[3]": {"molecular_target": "T3, cCFP-LAX1 (Oryza sativa Japonica variety Zhonghua 11 (ZH11)) (UniProt Q7XAQ6)", "T3 sequence": "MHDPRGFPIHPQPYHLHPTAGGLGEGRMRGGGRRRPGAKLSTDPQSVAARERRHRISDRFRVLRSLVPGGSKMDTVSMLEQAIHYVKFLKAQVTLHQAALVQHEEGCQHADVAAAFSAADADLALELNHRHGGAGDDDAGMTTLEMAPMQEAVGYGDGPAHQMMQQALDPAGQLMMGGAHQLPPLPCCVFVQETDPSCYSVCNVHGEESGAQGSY", "test": "split reporter; BiFC in rice protoplasts; cCFP-LAX1 with nCFP fusions; incubation overnight at 23°C; CFP fluorescence in nuclei"}, "[4]": {"molecular_target": "His-OsbHLH068 (Oryza sativa Japonica variety Zhonghua 11 (ZH11))", "test": "pull-down; bacterial lysates of MBP-LAX1 and His-OsbHLH067 or His-OsbHLH068 mixed; Ni Sepharose, 4°C, 60 min; washed with TGH buffer (150 mM NaCl, 1% Triton X-100); immunoblot with anti-MBP"}, "[5]": {"molecular_target": "His-OsbHLH067 (Oryza sativa Japonica variety Zhonghua 11 (ZH11))", "test": "pull-down; bacterial lysates of MBP-LAX1 and His-OsbHLH067 or His-OsbHLH068 mixed; Ni Sepharose, 4°C, 60 min; washed with TGH buffer (150 mM NaCl, 1% Triton X-100); immunoblot with anti-MBP"}, "[6]": {"molecular_target": "GST-OsbHLH069 (Oryza sativa Japonica variety Zhonghua 11 (ZH11))", "test": "pull-down; bacterial lysates of MBP-LAX1 and GST-OsbHLH069 mixed; glutathione sepharose, 4°C, 60 min; washed with TGH buffer (150 mM NaCl, 1% Triton X-100); immunoblot with anti-MBP"}}, "note": "No constants are given. Whether binding was seen depends on the method and setting. Binding can be weak; no strength is given. For some assays here: In cells and extracts the contact can be indirect. For some assays here: Where a sequence is shown, tags or fusion partners need not be part of it."}
{"molecule": "OsbHLH067 (prey in pGAD-T7)", "values": [{"measurement": "binding", "setting": "[1]", "value": "binds"}, {"measurement": "binding", "setting": "[2]", "value": "binds"}]}
{"molecule": "OsbHLH067-nCFP", "values": [{"measurement": "binding", "setting": "[3]", "value": "binds"}]}
{"molecule": "OsbHLH068 (prey in pGAD-T7)", "values": [{"measurement": "binding", "setting": "[1]", "value": "binds"}, {"measurement": "binding", "setting": "[2]", "value": "binds"}]}
{"molecule": "OsbHLH068-nCFP", "values": [{"measurement": "binding", "setting": "[3]", "value": "binds"}]}
{"molecule": "OsbHLH069 (prey in pGAD-T7)", "values": [{"measurement": "binding", "setting": "[1]", "value": "binds"}, {"measurement": "binding", "setting": "[2]", "value": "binds"}]}
{"molecule": "OsbHLH069-nCFP", "values": [{"measurement": "binding", "setting": "[3]", "value": "binds"}]}
{"molecule": "pGAD-OsbHLH003", "values": [{"measurement": "binding", "setting": "[1]", "value": "no binding"}, {"measurement": "binding", "setting": "[2]", "value": "no binding"}]}
{"molecule": "MBP-LAX1 (protein, UniProt Q7XAQ6 1-215) MHDPRGFPIHPQPYHLHPTAGGLGEGRMRGGGRRRPGAKLSTDPQSVAARERRHRISDRFRVLRSLVPGGSKMDTVSMLEQAIHYVKFLKAQVTLHQAALVQHEEGCQHADVAAAFSAADADLALELNHRHGGAGDDDAGMTTLEMAPMQEAVGYGDGPAHQMMQQALDPAGQLMMGGAHQLPPLPCCVFVQETDPSCYSVCNVHGEESGAQGSY", "values": [{"measurement": "binding", "setting": "[4]", "value": "binds"}, {"measurement": "binding", "setting": "[5]", "value": "binds"}, {"measurement": "binding", "setting": "[6]", "value": "binds"}]}
